Reference: PubChem BioAssay AID248 (DTP/NCI, 2004)
The list is a part of this screen's results and no random one: it gathers tests that were run many times, whatever their T/C, doses with no T/C, and many T/C values between a quarter and a half above the control. Other doses and runs of a compound stand elsewhere. T/C: endpoint of the treated group in % of that of the vehicle group. Some doses have a count of surviving animals in place of a T/C: the source files T/C as zero there, which appears to mark a toxic dose or a test without result, not a measured value. Some doses without a T/C left all or most animals alive at the check, yet need not have been tolerated: the source hardly ever lists a survival T/C far under the control, and the zero likely stands for such cases as well. Survivors were counted at the toxicity check, usually on the fifth day, unless a day is given; later deaths do not show. Schedules are NCI's codes, taken here to give the interval after Q, in days (D) or hours (H), and the number of doses after X. Some entries hold several experiments; the results are listed from low to high. Some schedule codes hold Z or #, which are not explained here. Where survival is the endpoint, the PubChem record calls one and a half times the control and up active, and a quarter to a half above the control has no call in these data; cut-offs in other NCI protocols can differ. Some T/C values carry the count of animals alive at the toxicity check (mostly the fifth day); where none is given, no animal had died by that day.

Test system: L1210 leukemia ip in BDF1 mice, survival T/C
Experiment: NCI In Vivo Anticancer Drug Screen. Data for tumor model L1210 Leukemia (intraperitoneal) in B6D2F1 (BDF1) mice
Settings: T/C endpoint: mean survival time, higher T/C = longer survival
[1] = dose: 150.0 mg/kg/injection, schedule: Q01DX001 (ip), vehicle: saline
[2] = dose: 200.0 mg/kg/injection, schedule: Q04DX003 (ip), vehicle: Klucel (hydroxypropylcellulose) (HPC)
[3] = dose: 400.0 mg/kg/injection, schedule: Q01DX001 (ip), vehicle: saline
[4] = dose: 400.0 mg/kg/injection, schedule: Q01DX009 (ip), vehicle: saline with Tween-80
[5] = dose: 100.0 mg/kg/injection, schedule: Q01DX005 (ip), vehicle: saline
[6] = dose: 200.0 mg/kg/injection, schedule: Q01DX005 (ip), vehicle: saline
[7] = dose: 300.0 mg/kg/injection, schedule: Q01DX001 (ip), vehicle: acetone
[8] = dose: 200.0 mg/kg/injection, schedule: Q01DX009 (ip), vehicle: saline with Tween-80
[9] = dose: 400.0 mg/kg/injection, schedule: Q04DX002 (ip), vehicle: saline
[10] = dose: 400.0 mg/kg/injection, schedule: Q04DX003 (ip), vehicle: saline with Tween-80

CSc1ncnc2c1ncn2C1OC(CO)C(O)OC1O (configuration not stated)
T/C (dose: 16.0 mg/kg/injection, schedule: Q01DX009 (ip), vehicle: saline): 125 % of control
T/C (dose: 27.0 mg/kg/injection, schedule: Q01DX009 (ip), vehicle: saline): 125 % of control
T/C (dose: 42.0 mg/kg/injection, schedule: Q01DX009 (ip), vehicle: saline): 137 % of control
T/C (dose: 100.0 mg/kg/injection, schedule: Q01DX001 (ip), vehicle: saline, evaluated on day 30): 116 and 122 % of control
T/C (dose: 100.0 mg/kg/injection, schedule: Q01DX001 (ip), vehicle: saline, run until all animals had died): 117 and 132 % of control
T/C [1]: 130 % of control [5 of 6 alive]
T/C (dose: 200.0 mg/kg/injection, schedule: Q01DX001 (ip), vehicle: saline, evaluated on day 30): 130 % of control
T/C (dose: 200.0 mg/kg/injection, schedule: Q01DX001 (ip), vehicle: saline, run until all animals had died): 138 % of control [4 of 6 alive]
survivor count [2]: 2 of 6
survivor count [3]: 0 of 4 and 0 of 6

O=C(NC(=S)Nc1ccc(Cl)c(Cl)c1)c1ccc(Cl)cc1Cl
survivor count (dose: 200.0 mg/kg/injection, schedule: Q04DX002 (ip), vehicle: saline with Tween-80): 3 of 3
survivor count (dose: 400.0 mg/kg/injection, schedule: Q01DX001 (ip), vehicle: saline with Tween-80): 6 of 6

CN(C)N=Nc1ccc(Cl)cc1C(N)=O
T/C [4]: 146 % of control [5 of 6 alive]

O=[N+]([O-])c1cc(O)ccc1Cl
survivor count (dose: 200.0 mg/kg/injection, schedule: Q01DX009 (ip), vehicle: alcohol): 0 of 6
survivor count (dose: 200.0 mg/kg/injection, schedule: Q04DX003 (ip), vehicle: alcohol): 3 of 6
survivor count (dose: 300.0 mg/kg/injection, schedule: Q01DX009 (ip), vehicle: alcohol): 0 of 6
survivor count (dose: 400.0 mg/kg/injection, schedule: Q04DX003 (ip), vehicle: alcohol): 1 of 6

Cc1cc(N(CCOS(C)(=O)=O)CCOS(C)(=O)=O)ccc1N=O
T/C (dose: 125.0 micrograms/kg/injection, schedule: Q01DX010 (ip), vehicle: saline): 125 % of control
T/C (dose: 250.0 micrograms/kg/injection, schedule: Q01DX010 (ip), vehicle: saline): 143 % of control
T/C (dose: 500.0 micrograms/kg/injection, schedule: Q01DX010 (ip), vehicle: saline): 149 % of control

CCC(C)(C(=O)O)C(=O)O
survivor count (dose: 200.0 mg/kg/injection, schedule: Q01DX001 (ip), vehicle: saline): 1 of 4
survivor count [3]: 0 of 4

CCC(=O)c1ccc(OC(=O)Nc2ccc(C)c(NC(=O)Oc3ccc(C(=O)CC)cc3)c2)cc1
survivor count (dose: 400.0 mg/kg/injection, schedule: Q01DX009 (ip), vehicle: other): 3 of 6

Nc1nc([Se])c2ncn(C3OC(CO)C(O)C3O)c2n1 (configuration not stated)
T/C (dose: 5.0 mg/kg/injection, schedule: Q01DX009 (ip), vehicle: saline): 143 % of control
T/C (dose: 40.0 mg/kg/injection, schedule: Q01DX009 (ip), vehicle: saline): 138 % of control
survivor count [5]: 2 of 6
survivor count [6]: 0 of 6

COc1nc(=O)n(C2CCCO2)cc1I (configuration not stated)
survivor count [3]: 1 of 4

CCCCCCCCCCCCCCC1=NCCN1
survivor count (dose: 75.0 mg/kg/injection, schedule: Q01DX001 (ip), vehicle: acetone): 2 of 6
survivor count (dose: 150.0 mg/kg/injection, schedule: Q01DX001 (ip), vehicle: acetone): 0 of 6
survivor count [7]: 0 of 6

C=CCN(CC=C)C(=O)CCN1CC1
survivor count (dose: 40.0 mg/kg/injection, schedule: Q01DX Z (ip), vehicle: saline): 2 of 7
survivor count (dose: 80.0 mg/kg/injection, schedule: Q01DX001 (ip), vehicle: saline): 0 of 7
survivor count (dose: 80.0 mg/kg/injection, schedule: Q01DX Z (ip), vehicle: saline): 0 of 7
survivor count (dose: 80.0 mg/kg/injection, schedule: Q01DX Z (oral), vehicle: saline): 2 of 7
survivor count (dose: 160.0 mg/kg/injection, schedule: Q01DX001 (ip), vehicle: saline): 0 of 7

CC1(N)CCC(C(C)(C)N)CC1 (configuration not stated)
survivor count [8]: 5 of 6
survivor count [4]: 0 of 6

Cc1c(C#N)c2n(c1C)CCN2
survivor count (dose: 200.0 mg/kg/injection, schedule: Q01DX001 (ip), vehicle: Klucel (hydroxypropylcellulose) (HPC)): 0 of 6
survivor count (dose: 400.0 mg/kg/injection, schedule: Q01DX001 (ip), vehicle: Klucel (hydroxypropylcellulose) (HPC)): 0 of 6

N#Cc1cn(C2OC(CO)C(O)C2O)c2ncn(O)c(=N)c12 (configuration not stated)
survivor count (dose: 3.12 mg/kg/injection, schedule: Q01DX005 (ip), vehicle: saline): 5 of 6
survivor count (dose: 6.25 mg/kg/injection, schedule: Q01DX005 (ip), vehicle: saline): 2 of 6
survivor count (dose: 12.5 mg/kg/injection, schedule: Q01DX005 (ip), vehicle: saline): 0 of 6
survivor count (dose: 25.0 mg/kg/injection, schedule: Q01DX005 (ip), vehicle: saline): 0 of 6
survivor count (dose: 50.0 mg/kg/injection, schedule: Q01DX005 (ip), vehicle: saline): 0 of 6
survivor count [5]: 0 of 6
survivor count [6]: 0 of 6

CCc1c[n+]([O-])c(C)cc1[N+](=O)[O-]
survivor count (dose: 400.0 mg/kg/injection, schedule: Q01DX009 (ip), vehicle: saline): 0 of 6

CCOC(=O)COc1c(C)cccc1Cl
survivor count (dose: 400.0 mg/kg/injection, schedule: Q04DX002 (ip), vehicle: saline with Tween-80): 0 of 3

CC(=O)N=c1ccccn1O
survivor count [9]: 3 of 3

O=C(O)/C=C\Cl
survivor count [9]: 1 of 3

C=CC[N+]12CCCC1C(=C)CC2 (configuration not stated)
survivor count (dose: 100.0 mg/kg/injection, schedule: Q01DX009 (ip), vehicle: saline): 0 of 3
survivor count (dose: 200.0 mg/kg/injection, schedule: Q01DX009 (ip), vehicle: saline): 0 of 3

CCOC(=O)c1c(NC(=O)CCl)ssc1=S
survivor count (dose: 100.0 mg/kg/injection, schedule: Q01DX009 (ip), vehicle: saline with Tween-80): 3 of 6
survivor count [8]: 2 of 6
survivor count (dose: 300.0 mg/kg/injection, schedule: Q01DX009 (ip), vehicle: saline with Tween-80): 1 of 6
survivor count [10]: 3 of 6

CCOC(=O)NOP(=O)(N1CC1)N1CC1
survivor count (dose: 200.0 mg/kg/injection, schedule: Q04DX002 (ip), vehicle: saline): 2 of 3
survivor count [9]: 3 of 3

CC1=C(C)C(C)(Cl)C1(C)Cl (configuration not stated)
survivor count [7]: 0 of 6

CC(=O)/C(=C(/C)OB(F)F)C(C)C
survivor count [3]: 0 of 6

c1ccc(C2=C(c3ccccc3)NC(c3ccccc3)N2)cc1
survivor count [2]: 1 of 6
survivor count (dose: 400.0 mg/kg/injection, schedule: Q04DX003 (ip), vehicle: Klucel (hydroxypropylcellulose) (HPC)): 0 of 6

Cc1cc2c(cc1C)N(C(=O)CCl)CC(=O)N2
survivor count [1]: 0 of 6
survivor count (dose: 300.0 mg/kg/injection, schedule: Q01DX001 (ip), vehicle: saline): 0 of 6

COc1cc(-c2ccc(N)c(OC)c2)ccc1N
survivor count (dose: 125.0 mg/kg/injection, schedule: Q01DX Z (ip), vehicle: saline): 4 of 7
survivor count (dose: 250.0 mg/kg/injection, schedule: Q01DX Z (ip), vehicle: saline): 0 of 7
survivor count (dose: 500.0 mg/kg/injection, schedule: Q01DX Z (ip), vehicle: methylcellulose (MC)): 3 of 7
survivor count (dose: 500.0 mg/kg/injection, schedule: Q01DX Z (ip), vehicle: saline): 0 of 7
survivor count (dose: 750.0 mg/kg/injection, schedule: Q01DX Z (ip), vehicle: methylcellulose (MC)): 0 of 7

c1ccc(-c2oc3cc4c(cc3c2-c2ccc(OCCN3CCCC3)cc2)CCC4)cc1
survivor count (dose: 200.0 mg/kg/injection, schedule: Q04DX003 (ip), vehicle: saline with Tween-80): 6 of 6
survivor count [10]: 6 of 6
